Test [1] addresses cynomolgus CD19 (cynomolgus monkey). The test is described as follows: flow cytometry on CHO cells transfected with cynomolgus CD19. A general note: A flow cytometer gives signals particle by particle.
Test [2] has the same target. The test is described as follows: flow cytometry on cynomolgus PBMC (B cells), 30 and 3 µg/mL.

Where a chain is given by its changes, count along the chain named. No constants are given. Whether binding was seen depends on the method and setting. Some binding calls cover weakened binding; strength is not graded here.

B1: 9G8 antibody (antibody, human IgG1, V domains shown)
VH: EVQLVQSGAEVKKPGESLKISCKGSGYSFTSYWIGWVRQMPGKGLEWMGIIYPGDSDTRYSPSFQGQVTISADKSISTAYLQWSSLKASDTAMYYCARGVSGIYNLHGFDIWGQGTLVTVSS
VL: DIQMTQSPSSLSASVGDRVTITCRASQSISSYLNWYQQKPGKAPKLLIYAASSLQSGVPSRFSGSGSGTDFTLTISSLQPEDFATYYCQQGRFGSPFTFGQGTKVEIK
notes: also called human IgG1 9G8 anti-CD19 antibody
On to B1, for which the binding result in test [1] and in test [2] was “binds” in each case.

B2: 7F11 antibody (antibody, human IgG1, V domains shown)
VH: B1 VH
VL: B1 VL with R92M, F93W, G94D, S95N
notes: Tested as human IgG1; also called human IgG1 7F11 anti-CD19 antibody
With B2, the binding entry in test [1] and in test [2] was “binds” in each case.

B3: 5F5 antibody (antibody, human IgG1, V domains shown)
VH: B1 VH with V100I
VL: B1 VL with G91A, R92S, F93L, G94D, F97L
notes: Tested as human IgG1; also called human IgG1 5F5 anti-CD19 antibody
With B3, the binding result in test [1] and in test [2] was “binds” in each case.

B4: F6 antibody (antibody, human IgG1, V domains shown)
VH: EVQLVQSGAEVKKPGESLKISCKGSGYSFTSYWIGWVRQMPGKGLEWMGIIYPGDSDTRYSPSFQGQVTISADKSISTAYLQWSSLKASDTAMYYCARVWYYDFWSGADAFDIWGQGTLVTVSS
VL: EIVMTQSPATLSVSPGERATLSCRASQSVSSNLAWYQQKPGQAPRLLIYGASTRATGIPARFSGSGSGTEFTLTISSLQSEDFAVYYCQQGSLEAPQTFGQGTKVEIK
notes: Tested as human IgG1; also called human IgG1 F6 anti-CD19 antibody
With B4, the binding result in test [1] and in test [2] was “binds” in each case.

Values taken from patent US20230272070A1 (published 2023).
